Data reported in PMC13375895.
No constants are given. Whether binding was seen depends on the method and setting. In cells and extracts the contact can be indirect. Some results given as binding are weak or reduced against the parent protein; the word gives no strength. For part of these data: Sequences can lack the tags named with a protein.

Amino acid sequences for entries named in this document (tags omitted).
UniProt Q60960: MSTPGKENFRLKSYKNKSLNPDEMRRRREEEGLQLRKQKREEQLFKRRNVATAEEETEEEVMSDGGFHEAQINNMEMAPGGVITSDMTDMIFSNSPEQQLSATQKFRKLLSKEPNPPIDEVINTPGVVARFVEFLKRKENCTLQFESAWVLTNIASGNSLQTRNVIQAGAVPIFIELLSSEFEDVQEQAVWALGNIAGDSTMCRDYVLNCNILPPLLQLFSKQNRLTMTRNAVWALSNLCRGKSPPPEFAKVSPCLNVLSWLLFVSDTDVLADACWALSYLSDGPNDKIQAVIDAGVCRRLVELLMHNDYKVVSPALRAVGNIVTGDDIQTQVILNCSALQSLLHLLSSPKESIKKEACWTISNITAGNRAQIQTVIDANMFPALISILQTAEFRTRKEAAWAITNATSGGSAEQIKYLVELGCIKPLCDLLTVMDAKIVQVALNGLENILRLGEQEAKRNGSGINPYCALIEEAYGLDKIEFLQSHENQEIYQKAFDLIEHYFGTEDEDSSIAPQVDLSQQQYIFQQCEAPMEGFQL

Experiments:
[1] = biological target: KPNA1-myc (importin subunit alpha 5) (UniProt Q60960); experiment: co-IP; lysates of transfected cells (1 μg of each plasmid) in IP lysis buffer (20 mM Tris-HCl, 150 mM NaCl, 1 mM EDTA, 1% Triton X-100); antibody (anti-MYC among those listed) on Protein G Sepharose, 2 h at 4°C; Western blot
[2] = biological target: KPNA1 (endogenous, mouse P10 cortex) (mouse (endogenous in P10 cortex)) (UniProt Q60960); experiment: co-IP; P10 mouse cortical lysates in IP lysis buffer; IPs with anti-PCDH19, anti-KPNA1 and IgG on Protein G Sepharose, 2 h at 4°C; Western blot

binding [1] | binding [2] | Binder
binds | – | PCDH19-FL-HA (full-length mouse Protocadherin 19 with a C-terminal HA tag) (protein, UniProt Q80TF3 22-1145) LINLKYSVEEEQRAGTVIANVAKDAREAGFALDPRQASAFRVVSNSAPHLVDINPSSGLLVTKQKIDRDLLCRQSPKCIISLEVMSSSMEICVIKVEIKDLNDNAPSFPAAQIELEISEAASPGTRIPLDSAYDPDSGSFGVQTYELTPNELFGLEIKTRGDGSRFAELVVEKSLDRETQSHYSFRITALDGGDPPHMGTVGLSIKVTDSNDNNPVFGESTYSVSVPENSPPNTPVIRLNASDPDEGTNGQVVYSFYGYVNDRTRELFQIDPHSGLVTVTGALDYEEGHVYELDVQAKDLGPNSIPAHCKVTVSVLDTNDNPPIINLLSVNSELVEVSESAPPGYVIALVRVSDRDSGLNGRVQCRLLGNVPFRLQEYESFSTILVDGRLDREQHDQYNLTIQARDSGVPMLQSAKSFTVRITDENDNHPHFSKPYYQVIVQENNTPGAYLLSVSARDPDMGLNGSVSYQIVPSQVRDMPVFTYVSINPNSGDIYALRSFNHEQTKAFEFKVLAKDGGLPSLQSNATVRVIILDVNDNTPVITAPPLINGTAEVYIPRNSGIGYLVTVVKADDYDEGENGRVTYDMTEGDRGFFEIDQVNGEVRTTRTFNENSKPSYELIVVAHDHGKTSLSASALVLIYLSPALDAQESMGSVNLSLIFIIALGSIAGILFVTMIFVAIKCKRDNKEIRTYNCSNCLTITCLLGCFIKGQNSKCLHCISVSPNSEEQDKKAEEKVSLRGKRIAEYSYGHQKKSSKKKKISKNDIRLVPRDVEETDKMNVVSCSSLTSSLNYFDYHQQTLPLGCRRSESTFLNVENQNTRNTTASHIYHHSFNSQGPQQPDLIINGVPLPETENYSFDSNYVNSRAHLIKSSSTFKDLEGNSLKDSGHEESDQTDSEHDVQRSLYCDTAVNDVLNTSVTSMGSQMPDHDQNEGFHCREECRILGHSDRCWMPRNPMPTRSKSPEHVRNIIALSIEATAADVEAYDDCGPTKRTFATFGKDVSSHRAEERPILKGKRTVDVTICSPKVNSAIREAGNGCEAISPVTSPLHLKSPLPTKPSISYTVALAPPAHDLEHHANSGASRPSEAEPRGADNEKVMHEVNPIRKDGRDKESPSVKRLKDIVL
– | binds | PCDH19 (endogenous, mouse P10 cortex) (protein, UniProt Q80TF3 22-1145) LINLKYSVEEEQRAGTVIANVAKDAREAGFALDPRQASAFRVVSNSAPHLVDINPSSGLLVTKQKIDRDLLCRQSPKCIISLEVMSSSMEICVIKVEIKDLNDNAPSFPAAQIELEISEAASPGTRIPLDSAYDPDSGSFGVQTYELTPNELFGLEIKTRGDGSRFAELVVEKSLDRETQSHYSFRITALDGGDPPHMGTVGLSIKVTDSNDNNPVFGESTYSVSVPENSPPNTPVIRLNASDPDEGTNGQVVYSFYGYVNDRTRELFQIDPHSGLVTVTGALDYEEGHVYELDVQAKDLGPNSIPAHCKVTVSVLDTNDNPPIINLLSVNSELVEVSESAPPGYVIALVRVSDRDSGLNGRVQCRLLGNVPFRLQEYESFSTILVDGRLDREQHDQYNLTIQARDSGVPMLQSAKSFTVRITDENDNHPHFSKPYYQVIVQENNTPGAYLLSVSARDPDMGLNGSVSYQIVPSQVRDMPVFTYVSINPNSGDIYALRSFNHEQTKAFEFKVLAKDGGLPSLQSNATVRVIILDVNDNTPVITAPPLINGTAEVYIPRNSGIGYLVTVVKADDYDEGENGRVTYDMTEGDRGFFEIDQVNGEVRTTRTFNENSKPSYELIVVAHDHGKTSLSASALVLIYLSPALDAQESMGSVNLSLIFIIALGSIAGILFVTMIFVAIKCKRDNKEIRTYNCSNCLTITCLLGCFIKGQNSKCLHCISVSPNSEEQDKKAEEKVSLRGKRIAEYSYGHQKKSSKKKKISKNDIRLVPRDVEETDKMNVVSCSSLTSSLNYFDYHQQTLPLGCRRSESTFLNVENQNTRNTTASHIYHHSFNSQGPQQPDLIINGVPLPETENYSFDSNYVNSRAHLIKSSSTFKDLEGNSLKDSGHEESDQTDSEHDVQRSLYCDTAVNDVLNTSVTSMGSQMPDHDQNEGFHCREECRILGHSDRCWMPRNPMPTRSKSPEHVRNIIALSIEATAADVEAYDDCGPTKRTFATFGKDVSSHRAEERPILKGKRTVDVTICSPKVNSAIREAGNGCEAISPVTSPLHLKSPLPTKPSISYTVALAPPAHDLEHHANSGASRPSEAEPRGADNEKVMHEVNPIRKDGRDKESPSVKRLKDIVL
binds | – | PCDH19-ICD-HA (intracellular domain of mouse Protocadherin 19, 700-1145 aa, with an added methionine and a C-terminal HA tag) (domain or fragment, UniProt Q80TF3 700-1145) MAIKCKRDNKEIRTYNCSNCLTITCLLGCFIKGQNSKCLHCISVSPNSEEQDKKAEEKVSLRGKRIAEYSYGHQKKSSKKKKISKNDIRLVPRDVEETDKMNVVSCSSLTSSLNYFDYHQQTLPLGCRRSESTFLNVENQNTRNTTASHIYHHSFNSQGPQQPDLIINGVPLPETENYSFDSNYVNSRAHLIKSSSTFKDLEGNSLKDSGHEESDQTDSEHDVQRSLYCDTAVNDVLNTSVTSMGSQMPDHDQNEGFHCREECRILGHSDRCWMPRNPMPTRSKSPEHVRNIIALSIEATAADVEAYDDCGPTKRTFATFGKDVSSHRAEERPILKGKRTVDVTICSPKVNSAIREAGNGCEAISPVTSPLHLKSPLPTKPSISYTVALAPPAHDLEHHANSGASRPSEAEPRGADNEKVMHEVNPIRKDGRDKESPSVKRLKDIVL
